The text below walks through data of publication PMC8028089.

Test [1] addresses T1, MAP17 (human (endogenous in SMMC-7721 and HCC-LM3)) (UniProt Q13113).
T1 sequence: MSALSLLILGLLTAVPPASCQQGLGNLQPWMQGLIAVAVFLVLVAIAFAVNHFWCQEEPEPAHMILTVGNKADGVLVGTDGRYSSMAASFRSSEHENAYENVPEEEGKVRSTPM
Kind of test: co-IP; supernatants pre-incubated with protein A/G PLUS agarose, then 2 ug MAP17 antibodies or control IgG overnight at 4 °C; protein A/G agarose; western blotting.

The target of test [2] is T1, MAP17 (human (endogenous in SMMC-7721 and HCC-LM3)). Kind of test: proximity ligation; SMMC-7721 and HCC-LM3 cells fixed with 4% paraformaldehyde, permeabilised with 0.1% Triton-X; mouse anti-PDZK1 and rabbit anti-MAP17 primary antibodies; foci seen by confocal microscopy.

Results are given in words; binding and its absence hold for the method and conditions named. Binding seen in cells or lysates may run through a third protein. Some binding calls cover weakened binding; strength is not graded here.

B1: PDZK1 (protein, UniProt Q5T2W1 1-519)
chain: MTSTFNPRECKLSKQEGQNYGFFLRIEKDTEGHLVRVVEKCSPAEKAGLQDGDRVLRINGVFVDKEEHMQVVDLVRKSGNSVTLLVLDGDSYEKAVKTRVDLKELGQSQKEQGLSDNILSPVMNGGVQTWTQPRLCYLVKEGGSYGFSLKTVQGKKGVYMTDITPQGVAMRAGVLADDHLIEVNGENVEDASHEEVVEKVKKSGSRVMFLLVDKETDKRHVEQKIQFKRETASLKLLPHQPRIVEMKKGSNGYGFYLRAGSEQKGQIIKDIDSGSPAEEAGLKNNDLVVAVNGESVETLDHDSVVEMIRKGGDQTSLLVVDKETDNMYRLAHFSPFLYYQSQELPNGSVKEAPAPTPTSLEVSSPPDTTEEVDHKPKLCRLAKGENGYGFHLNAIRGLPGSFIKEVQKGGPADLAGLEDEDVIIEVNGVNVLDEPYEKVVDRIQSSGKNVTLLVCGKKAYDYFQAKKIPIVSSLADPLDTPPDSKEGIVVESNHDSHMAKERAHSTASHSSSNSEDTEM
With B1, the binding entry in test [1] and in test [2] was “binds” throughout.
